# Assay results taken from patent US20030212051A1, “Bile acid containing prodrugs with enhanced bioavailabilty” (priority 2003, published 2003).
# Entries after “also recorded” stand apart in the source; their conditions may differ.
# Target: T1, human intestinal bile acid transporter (hIBAT) (Homo sapiens, UniProt Q12908)
# T1 construct: expressed in transfected cells; host or cells: COS-7 cells, transient transfection with pCMV5-hIBAT (LipofectAMINE 2000)
# T1 sequence (Q12908 1-348): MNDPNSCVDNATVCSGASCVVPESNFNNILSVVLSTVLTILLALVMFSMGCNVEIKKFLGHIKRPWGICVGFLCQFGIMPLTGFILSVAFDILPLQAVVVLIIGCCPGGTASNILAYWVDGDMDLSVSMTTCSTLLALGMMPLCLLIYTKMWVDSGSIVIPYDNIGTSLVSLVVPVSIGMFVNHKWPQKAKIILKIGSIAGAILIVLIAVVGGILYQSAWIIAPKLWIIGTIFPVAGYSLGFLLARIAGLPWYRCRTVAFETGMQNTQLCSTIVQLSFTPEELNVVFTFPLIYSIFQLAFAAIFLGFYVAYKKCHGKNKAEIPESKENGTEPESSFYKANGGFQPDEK
# Test: Competitive inhibition of 3H-taurocholate uptake in COS-hIBAT cells
# Type: cell-based
# Details: 0.25 μM 3H-taurocholate, valacyclovir 10 to 600 μM, atenolol 10 to 200 μM, glycine and taurine 50 to 200 μM, bile acids 1 to 100 μM
# Method: Cell dilutions are streaked on nutrient agar plates containing 50 μg/ml ampicillin, and incubated at 37° C. overnight. Isolated colonies are selected aseptically, and are used to inoculate a 200 ml nutrient broth culture containing 50 μg/ml ampicillin. […] After an isopropanol precipitation and ethanol wash, the DNA is reconstituted in 600 μl of sterile deionized water. […] Cells are transfected at 24 hours post seeding. For each well transfected, 0.8 μg hIBAT cDNA is combined with LipofectAMINE 2000 reagent and incubated at room temperature for 20 minutes to allow complexes to form. A volume of 100 μl of hIBAT-lipid complex is added to each well of cells.
# Uptake studies are performed on COS-hIBAT cells at 24 hours post-transfection. […] Because bile acid transport is sodium dependent, this MHBSS approach allows for the simple modification of the uptake buffer to exclude all sources of sodium, and thus enables for a control uptake assay under sodium-free conditions.
# Incubation conditions and analysis are performed as described for the Km and Vmax studies. The following equation (Formula 2) is used to estimate the Ki for a series of naturally occurring bile acids: [formula]
# Inhibition studies are performed in triplicate.
structure (smiles),measurement,value
CC(C)NCC(O)COc1ccc(CC(N)=O)cc1 (stereo not shown) [atenolol],inhibition of 3H-taurocholate uptake / interaction with hIBAT (in words),do not inhibit; also recorded: does not interact
